Reference: the supplement of paper PMC10849652
Some of the results follow.

Amino acid sequences for entries named in this document (tags omitted). A change or cut given only in a name is not applied to a line headed by its entry.
UniProt P48556: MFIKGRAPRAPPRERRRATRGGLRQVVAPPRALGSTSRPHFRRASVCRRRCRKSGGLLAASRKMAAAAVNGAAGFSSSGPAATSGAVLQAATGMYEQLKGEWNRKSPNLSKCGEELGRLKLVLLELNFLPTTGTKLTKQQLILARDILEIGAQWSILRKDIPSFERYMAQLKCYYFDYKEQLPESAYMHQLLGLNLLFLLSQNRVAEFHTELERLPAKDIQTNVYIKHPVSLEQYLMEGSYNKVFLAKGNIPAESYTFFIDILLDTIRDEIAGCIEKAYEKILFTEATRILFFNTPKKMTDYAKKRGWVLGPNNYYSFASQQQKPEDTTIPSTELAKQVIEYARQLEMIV
UniProt Q9Y3E5: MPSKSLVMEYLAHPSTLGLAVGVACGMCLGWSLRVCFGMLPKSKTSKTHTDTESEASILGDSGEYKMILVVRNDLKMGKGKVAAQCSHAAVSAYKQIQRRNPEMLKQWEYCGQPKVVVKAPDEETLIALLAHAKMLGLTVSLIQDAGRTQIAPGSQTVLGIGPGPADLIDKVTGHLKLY
UniProt Q05209: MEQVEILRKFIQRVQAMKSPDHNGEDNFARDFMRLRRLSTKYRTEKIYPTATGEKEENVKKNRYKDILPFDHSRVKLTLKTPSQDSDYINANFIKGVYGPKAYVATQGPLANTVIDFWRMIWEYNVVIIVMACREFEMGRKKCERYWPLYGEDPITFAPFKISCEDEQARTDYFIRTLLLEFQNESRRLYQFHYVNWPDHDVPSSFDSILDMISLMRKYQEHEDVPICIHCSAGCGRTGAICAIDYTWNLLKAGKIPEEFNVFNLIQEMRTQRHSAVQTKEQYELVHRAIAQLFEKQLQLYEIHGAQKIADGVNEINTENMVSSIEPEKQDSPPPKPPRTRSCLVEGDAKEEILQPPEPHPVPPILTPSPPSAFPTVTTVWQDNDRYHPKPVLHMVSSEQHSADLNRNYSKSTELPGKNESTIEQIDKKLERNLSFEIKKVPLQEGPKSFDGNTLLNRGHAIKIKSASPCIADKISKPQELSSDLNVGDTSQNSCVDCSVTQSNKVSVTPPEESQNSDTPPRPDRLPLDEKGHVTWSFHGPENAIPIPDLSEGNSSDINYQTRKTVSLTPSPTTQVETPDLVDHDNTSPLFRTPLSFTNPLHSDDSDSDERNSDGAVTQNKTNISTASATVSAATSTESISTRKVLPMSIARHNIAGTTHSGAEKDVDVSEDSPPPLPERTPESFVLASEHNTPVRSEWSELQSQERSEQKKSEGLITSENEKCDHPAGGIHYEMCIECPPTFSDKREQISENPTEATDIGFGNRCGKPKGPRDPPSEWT
UniProt Q15008: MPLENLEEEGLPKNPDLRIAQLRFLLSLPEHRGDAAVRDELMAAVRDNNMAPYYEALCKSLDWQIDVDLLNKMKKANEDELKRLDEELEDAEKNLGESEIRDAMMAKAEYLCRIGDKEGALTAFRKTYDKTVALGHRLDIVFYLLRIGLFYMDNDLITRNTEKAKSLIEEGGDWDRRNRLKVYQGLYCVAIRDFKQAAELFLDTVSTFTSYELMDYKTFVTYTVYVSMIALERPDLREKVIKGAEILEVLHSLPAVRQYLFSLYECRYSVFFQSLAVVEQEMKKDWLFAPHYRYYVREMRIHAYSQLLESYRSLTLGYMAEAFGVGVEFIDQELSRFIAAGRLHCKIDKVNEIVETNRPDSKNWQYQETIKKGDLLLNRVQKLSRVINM
UniProt Q14997: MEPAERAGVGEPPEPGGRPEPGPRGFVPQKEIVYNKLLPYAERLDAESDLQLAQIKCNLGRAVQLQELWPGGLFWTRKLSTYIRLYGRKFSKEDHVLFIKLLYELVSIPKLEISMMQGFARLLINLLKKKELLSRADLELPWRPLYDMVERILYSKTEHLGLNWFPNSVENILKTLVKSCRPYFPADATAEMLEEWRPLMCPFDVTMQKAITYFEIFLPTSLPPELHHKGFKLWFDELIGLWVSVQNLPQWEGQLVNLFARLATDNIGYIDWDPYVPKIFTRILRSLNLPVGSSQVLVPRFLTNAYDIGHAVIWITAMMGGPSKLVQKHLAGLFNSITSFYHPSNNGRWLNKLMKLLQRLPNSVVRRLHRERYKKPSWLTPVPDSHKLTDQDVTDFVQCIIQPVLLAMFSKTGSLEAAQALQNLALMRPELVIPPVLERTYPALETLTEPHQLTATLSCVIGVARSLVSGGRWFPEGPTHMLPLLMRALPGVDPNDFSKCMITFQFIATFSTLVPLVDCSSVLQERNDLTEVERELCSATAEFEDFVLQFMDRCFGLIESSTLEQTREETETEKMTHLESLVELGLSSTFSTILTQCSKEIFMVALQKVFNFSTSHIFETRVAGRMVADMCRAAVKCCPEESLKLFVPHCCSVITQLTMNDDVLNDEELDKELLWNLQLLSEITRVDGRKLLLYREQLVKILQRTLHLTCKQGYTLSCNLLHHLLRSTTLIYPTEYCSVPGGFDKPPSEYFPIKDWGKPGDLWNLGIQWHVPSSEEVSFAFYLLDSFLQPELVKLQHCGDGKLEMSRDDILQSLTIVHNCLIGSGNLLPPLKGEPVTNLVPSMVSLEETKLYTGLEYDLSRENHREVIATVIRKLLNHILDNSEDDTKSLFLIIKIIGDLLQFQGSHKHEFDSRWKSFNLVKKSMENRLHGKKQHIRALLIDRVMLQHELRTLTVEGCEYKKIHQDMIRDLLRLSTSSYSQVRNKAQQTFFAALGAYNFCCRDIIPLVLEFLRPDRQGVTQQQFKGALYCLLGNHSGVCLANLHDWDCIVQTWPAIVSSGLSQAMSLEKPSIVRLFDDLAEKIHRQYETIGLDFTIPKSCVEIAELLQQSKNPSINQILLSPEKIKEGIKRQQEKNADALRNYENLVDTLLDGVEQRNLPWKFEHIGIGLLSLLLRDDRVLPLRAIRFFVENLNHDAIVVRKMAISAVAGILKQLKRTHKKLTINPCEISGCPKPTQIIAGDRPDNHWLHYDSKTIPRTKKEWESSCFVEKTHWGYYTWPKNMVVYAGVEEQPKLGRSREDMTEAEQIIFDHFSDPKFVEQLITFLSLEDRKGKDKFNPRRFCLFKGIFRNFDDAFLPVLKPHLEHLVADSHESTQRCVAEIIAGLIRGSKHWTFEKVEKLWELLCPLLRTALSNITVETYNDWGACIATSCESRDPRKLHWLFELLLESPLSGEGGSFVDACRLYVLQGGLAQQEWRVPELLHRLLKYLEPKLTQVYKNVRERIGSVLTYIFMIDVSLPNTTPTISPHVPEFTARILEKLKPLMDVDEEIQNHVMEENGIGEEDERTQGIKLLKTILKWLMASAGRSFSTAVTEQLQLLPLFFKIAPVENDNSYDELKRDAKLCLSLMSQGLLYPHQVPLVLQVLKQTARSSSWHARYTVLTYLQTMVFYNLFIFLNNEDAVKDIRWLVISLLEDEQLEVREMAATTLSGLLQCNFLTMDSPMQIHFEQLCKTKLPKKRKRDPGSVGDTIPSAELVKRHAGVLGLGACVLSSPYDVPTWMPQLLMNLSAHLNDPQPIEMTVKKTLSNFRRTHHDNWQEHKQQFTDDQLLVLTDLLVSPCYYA
UniProt Q9NYI0: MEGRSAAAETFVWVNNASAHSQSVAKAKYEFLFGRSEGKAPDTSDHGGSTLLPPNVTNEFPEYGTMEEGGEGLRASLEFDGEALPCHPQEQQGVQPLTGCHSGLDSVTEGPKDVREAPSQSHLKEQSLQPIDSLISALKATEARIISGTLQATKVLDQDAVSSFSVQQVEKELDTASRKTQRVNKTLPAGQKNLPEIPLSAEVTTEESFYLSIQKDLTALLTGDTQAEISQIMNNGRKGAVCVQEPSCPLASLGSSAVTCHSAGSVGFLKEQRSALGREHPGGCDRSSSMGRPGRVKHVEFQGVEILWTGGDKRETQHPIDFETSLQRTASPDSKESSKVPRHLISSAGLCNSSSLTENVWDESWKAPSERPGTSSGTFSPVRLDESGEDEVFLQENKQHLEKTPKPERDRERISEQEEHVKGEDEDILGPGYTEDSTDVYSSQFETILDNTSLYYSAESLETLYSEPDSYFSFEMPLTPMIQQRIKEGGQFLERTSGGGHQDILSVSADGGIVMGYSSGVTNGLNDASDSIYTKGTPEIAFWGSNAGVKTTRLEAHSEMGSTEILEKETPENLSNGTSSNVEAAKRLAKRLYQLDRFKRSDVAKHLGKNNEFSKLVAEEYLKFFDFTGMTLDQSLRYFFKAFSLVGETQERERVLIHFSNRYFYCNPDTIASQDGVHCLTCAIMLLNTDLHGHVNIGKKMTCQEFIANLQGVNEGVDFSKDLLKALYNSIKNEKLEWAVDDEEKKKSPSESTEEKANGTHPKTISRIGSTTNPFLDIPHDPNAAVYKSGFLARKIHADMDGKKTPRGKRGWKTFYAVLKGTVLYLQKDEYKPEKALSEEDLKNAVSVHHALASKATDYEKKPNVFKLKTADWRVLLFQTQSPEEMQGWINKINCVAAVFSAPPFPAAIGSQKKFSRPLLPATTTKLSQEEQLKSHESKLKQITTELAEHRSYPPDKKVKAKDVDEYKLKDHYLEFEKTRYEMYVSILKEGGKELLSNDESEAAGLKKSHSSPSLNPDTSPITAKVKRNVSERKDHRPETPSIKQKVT
UniProt P32322: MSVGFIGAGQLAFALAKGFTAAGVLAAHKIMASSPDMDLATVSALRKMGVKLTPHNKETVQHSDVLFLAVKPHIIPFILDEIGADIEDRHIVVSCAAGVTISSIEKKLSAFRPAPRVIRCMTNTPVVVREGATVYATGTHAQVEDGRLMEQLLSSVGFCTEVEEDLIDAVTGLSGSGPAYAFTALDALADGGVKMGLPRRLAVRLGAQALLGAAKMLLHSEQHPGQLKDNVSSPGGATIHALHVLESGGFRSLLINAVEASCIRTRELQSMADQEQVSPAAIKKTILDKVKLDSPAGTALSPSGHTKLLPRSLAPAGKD
UniProt P15151: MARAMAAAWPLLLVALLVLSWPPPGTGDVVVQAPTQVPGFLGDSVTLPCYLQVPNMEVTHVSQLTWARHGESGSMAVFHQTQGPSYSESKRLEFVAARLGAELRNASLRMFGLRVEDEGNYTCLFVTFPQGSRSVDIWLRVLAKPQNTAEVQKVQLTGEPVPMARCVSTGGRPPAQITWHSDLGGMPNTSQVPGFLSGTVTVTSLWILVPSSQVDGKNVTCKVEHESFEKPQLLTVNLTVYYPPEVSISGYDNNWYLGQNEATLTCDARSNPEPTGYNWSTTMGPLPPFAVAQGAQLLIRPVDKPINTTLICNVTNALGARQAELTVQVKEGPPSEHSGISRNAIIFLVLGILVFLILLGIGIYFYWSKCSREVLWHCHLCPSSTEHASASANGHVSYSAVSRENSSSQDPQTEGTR
UniProt P43115: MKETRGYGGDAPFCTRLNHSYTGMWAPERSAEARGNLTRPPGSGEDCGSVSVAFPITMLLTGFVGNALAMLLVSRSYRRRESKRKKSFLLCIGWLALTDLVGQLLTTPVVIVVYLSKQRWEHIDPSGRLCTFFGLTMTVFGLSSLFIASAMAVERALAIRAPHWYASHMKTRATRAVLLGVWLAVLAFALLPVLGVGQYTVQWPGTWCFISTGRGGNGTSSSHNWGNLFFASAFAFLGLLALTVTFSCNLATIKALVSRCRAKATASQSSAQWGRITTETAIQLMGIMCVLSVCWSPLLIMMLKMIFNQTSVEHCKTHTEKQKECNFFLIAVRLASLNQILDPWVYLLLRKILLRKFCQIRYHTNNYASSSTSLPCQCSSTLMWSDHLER
UniProt P28062: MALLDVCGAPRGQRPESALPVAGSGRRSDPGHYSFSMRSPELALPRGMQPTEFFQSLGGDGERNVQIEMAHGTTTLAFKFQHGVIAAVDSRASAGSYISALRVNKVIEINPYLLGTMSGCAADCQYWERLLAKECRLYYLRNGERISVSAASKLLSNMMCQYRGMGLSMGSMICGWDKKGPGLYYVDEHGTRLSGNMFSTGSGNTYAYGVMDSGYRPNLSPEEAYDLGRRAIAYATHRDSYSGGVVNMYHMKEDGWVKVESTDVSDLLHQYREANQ
UniProt P43378: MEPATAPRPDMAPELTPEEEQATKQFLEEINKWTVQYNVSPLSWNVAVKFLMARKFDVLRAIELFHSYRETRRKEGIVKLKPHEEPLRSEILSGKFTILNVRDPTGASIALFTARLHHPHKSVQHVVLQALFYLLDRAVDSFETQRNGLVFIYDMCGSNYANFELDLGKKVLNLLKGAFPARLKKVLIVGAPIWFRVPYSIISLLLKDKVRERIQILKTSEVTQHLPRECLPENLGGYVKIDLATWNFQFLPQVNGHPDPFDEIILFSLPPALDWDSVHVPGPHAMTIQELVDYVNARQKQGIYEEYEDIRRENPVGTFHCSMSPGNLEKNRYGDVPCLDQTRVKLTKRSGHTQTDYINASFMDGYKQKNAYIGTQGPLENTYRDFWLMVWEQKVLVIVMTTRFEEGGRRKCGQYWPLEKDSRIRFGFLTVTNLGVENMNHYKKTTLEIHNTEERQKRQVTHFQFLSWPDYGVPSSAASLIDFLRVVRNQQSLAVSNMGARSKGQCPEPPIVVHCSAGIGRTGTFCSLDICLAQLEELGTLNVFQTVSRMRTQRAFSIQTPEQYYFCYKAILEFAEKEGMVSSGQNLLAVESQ

Columns and labels:
Experiment in all cases: log2 fold change, soluble protein after heating vs DMSO (PISA); higher = thermal stabilisation; K562 cells, 10 uM, 30 min; active = over 0.2 and 3.5 SD of the protein, either way, in both replicates (recomputed)
[1] = compound: CS(=O)(=O)c1ccc(-c2cnc(N)c(C(=O)Nc3ccccc3)n2)cc1
How it was run: (§1)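 K562 cells at 2×10^6 cells/mL were treated with 10 μM compound for 30 min. Aliquots were heated for 3 min across 48°C-58°C, pooled, and extracted in PBS with 0.5% NP-40 at 4°C; soluble protein was the supernatant after 21,000xg for 90 min. Soluble protein was quantified by TMTpro 16plex LC-MS/MS with channel sums equalised, and reported as log2 fold change in thermal stability against DMSO controls, with values from duplicates.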

crizotinib = compound: C[C@@H](Oc1cc(-c2cnn(C3CCNCC3)c2)cnc1N)c1c(Cl)ccc(F)c1Cl [crizotinib]
How it was run: as §1

[2] = compound: C[C@@H]1COCCN1C2=NC(=NC(=C2)C3(CC3)S(=O)(=O)C)C4=C5C=CNC5=CC=C4
How it was run: as §1

[3] = compound: C[C@H](C1=CC=C(C=C1)C(=O)NC2=C3C=CNC3=NC=C2)N
How it was run: as §1

gandotinib = compound: Cc1cc(Nc2cc(CN3CCOCC3)c3nc(C)c(Cc4ccc(Cl)cc4F)n3n2)n[nH]1 [gandotinib]
How it was run: as §1

[4] = compound: Cc1cc(SCc2sc(-c3ccc(C(F)(F)F)cc3)nc2C)ccc1OCC(=O)O
How it was run: as §1

doramapimod = compound: Cc1ccc(-n2nc(C(C)(C)C)cc2NC(=O)Nc2ccc(OCCN3CCOCC3)c3ccccc23)cc1 [doramapimod]
How it was run: as §1

ispinesib = compound: Cc1ccc(C(=O)N(CCCN)[C@@H](c2nc3cc(Cl)ccc3c(=O)n2Cc2ccccc2)C(C)C)cc1 [ispinesib]
How it was run: as §1

duvelisib = compound: C[C@H](Nc1ncnc2nc[nH]c12)c1cc2cccc(Cl)c2c(=O)n1-c1ccccc1 [duvelisib]
How it was run: as §1

tozasertib = compound: Cc1cc(Nc2cc(N3CCN(C)CC3)nc(Sc3ccc(NC(=O)C4CC4)cc3)n2)n[nH]1 [tozasertib]
How it was run: as §1

Row | Target | log2 fold change [1] | log2 fold change (crizotinib) | log2 fold change [2] | log2 fold change [3] | log2 fold change (gandotinib) | log2 fold change [4] | log2 fold change (doramapimod) | log2 fold change (ispinesib) | log2 fold change (duvelisib) | log2 fold change (tozasertib)
1 | PSMD8 (UniProt P48556) | inactive: 0.034 | inactive: 0.011 | inactive: -0.053 | inactive: 0.156 | inactive: 0.002 | inactive: 0.059 | inactive: 0.028 | inactive: 0.015 | – | –
2 | R3HDM1 isoform 2 (UniProt Q15032) | inactive: 0.064 | inactive: 0.018 | – | – | inactive: -0.025 | inactive: 0.181 | inactive: -0.082 | inactive: 0.083 | inactive: 0.062 | inactive: -0.012
3 | PTGFRN (UniProt Q9P2B2) | inactive: 0.068 | inactive: 0.057 | inactive: 0.063 | inactive: -0.003 | inactive: -0.023 | inactive: -0.065 | inactive: 0.001 | inactive: 0.165 | – | –
4 | PSMD12 (UniProt O00232) | inactive: 0.053 | inactive: 0.009 | inactive: -0.03 | inactive: 0.073 | inactive: 0.029 | inactive: 0.057 | inactive: 0.019 | inactive: 0.003 | – | –
5 | PTP4A2 (UniProt Q12974) | inactive: -0.001 | inactive: 0.047 | inactive: 0.026 | inactive: -0.01 | – | inactive: 0.05 | inactive: -0.047 | inactive: 0.154 | – | –
6 | PTP4A1 (UniProt Q93096) | inactive: 0.04 | inactive: 0.036 | inactive: -0.006 | inactive: -0.094 | inactive: -0.116 | inactive: -0.039 | inactive: -0.037 | inactive: 0.039 | – | –
7 | PTRH2 (UniProt Q9Y3E5) | inactive: 0.02 | inactive: 0.081 | inactive: 0.061 | inactive: -0.098 | inactive: -0.02 | inactive: -0.001 | inactive: -0.074 | inactive: 0.181 | – | –
8 | PTPN12 (UniProt Q05209) | inactive: 0.031 | inactive: -0.018 | inactive: -0.04 | inactive: 0.069 | inactive: -0.088 | inactive: 0.053 | inactive: -0.004 | inactive: -0.011 | – | –
9 | PTPRS (UniProt Q13332) | inactive: -0.051 | inactive: -0.086 | inactive: 0.107 | – | inactive: -0.395 | inactive: 0.045 | inactive: 0.125 | inactive: 0.006 | inactive: -0.21 | –
10 | QRSL1 (UniProt Q9H0R6) | inactive: 0.046 | inactive: -0.04 | active: 0.212 | inactive: -0.023 | inactive: 0.082 | inactive: 0.024 | inactive: -0.015 | inactive: -0.049 | – | –
11 | PTPN23 (UniProt Q9H3S7) | inactive: 0.014 | inactive: 0.057 | inactive: 0.018 | inactive: 0.027 | inactive: -0.072 | inactive: 0.13 | inactive: -0.002 | inactive: 0.018 | – | –
12 | PSMD6 (UniProt Q15008) | inactive: 0.033 | inactive: -0.046 | inactive: -0.08 | inactive: 0.052 | inactive: -0.02 | inactive: 0.03 | inactive: 0.057 | inactive: 0.056 | – | –
13 | PSMC2 (UniProt P35998) | inactive: 0.011 | inactive: 0.003 | inactive: -0.087 | inactive: 0.079 | inactive: 0.027 | inactive: 0.014 | inactive: 0.005 | inactive: 0.016 | – | –
14 | PSMB9 (UniProt P28065) | inactive: 0.259 | inactive: 0 | inactive: 0.075 | inactive: 0.066 | inactive: 0.126 | – | inactive: 0.084 | – | – | –
15 | PSME4 (UniProt Q14997) | inactive: 0.036 | inactive: -0.161 | inactive: 0.013 | inactive: 0.052 | inactive: -0.082 | inactive: 0.093 | inactive: 0.045 | inactive: -0.09 | – | –
16 | PXK (UniProt Q7Z7A4) | inactive: -0.06 | inactive: -0.139 | inactive: 0.032 | inactive: -0.026 | inactive: -0.042 | inactive: 0.011 | inactive: -0.025 | inactive: -0.203 | – | –
17 | PSD3 (UniProt Q9NYI0) | – | inactive: 0.071 | – | inactive: -0.047 | – | – | inactive: -0.02 | inactive: -0.075 | – | –
18 | PYCARD isoform 2 (UniProt Q9ULZ3) | – | inactive: 0.198 | – | – | – | – | inactive: 0.155 | inactive: -0.11 | – | –
19 | PYCR1 isoform 3 (UniProt P32322) | – | inactive: 0.022 | inactive: 0.052 | inactive: -0.122 | inactive: 0.154 | inactive: -0.007 | inactive: -0.01 | inactive: 0.054 | inactive: 0 | inactive: 0.018
20 | PTPA (UniProt A6PVN8) | inactive: -0.116 | – | inactive: 0.083 | inactive: 0.1 | inactive: -0.048 | inactive: -0.203 | – | inactive: -0.04 | – | –
21 | PUM1 (UniProt Q14671) | – | inactive: -0.079 | – | inactive: -0.362 | inactive: 0.207 | inactive: 0.203 | inactive: 0.041 | – | – | –
22 | PSIP1 (UniProt V9GYT7) | – | inactive: -0.098 | – | inactive: -0.038 | inactive: 0.18 | inactive: -0.022 | inactive: 0.17 | inactive: -0.008 | inactive: 0.022 | inactive: 0.017
23 | PSMA3 (UniProt G3V4X5) | – | inactive: -0.277 | – | – | – | – | inactive: 0.149 | inactive: -0.081 | – | –
24 | PVR (UniProt P15151) | inactive: 0.054 | – | inactive: 0.024 | inactive: -0.15 | inactive: -0.078 | inactive: -0.042 | – | – | inactive: 0.039 | inactive: -0.041
25 | PUF60 isoform 2 (UniProt Q9UHX1) | – | – | – | inactive: -0.591 | – | inactive: 0.04 | – | inactive: 0.173 | – | –

Shown with tabs: entries from further up
Row	Target	log2 fold change [1]	log2 fold change (crizotinib)	log2 fold change [2]	log2 fold change [3]	log2 fold change (gandotinib)	log2 fold change [4]	log2 fold change (doramapimod)	log2 fold change (ispinesib)	log2 fold change (duvelisib)	log2 fold change (tozasertib)
6	PTP4A1 (UniProt Q93096)	inactive: 0.04	inactive: 0.036	inactive: -0.006	inactive: -0.094	inactive: -0.116	inactive: -0.039	inactive: -0.037	inactive: 0.039	–	–
7	PTRH2 (UniProt Q9Y3E5)	inactive: 0.02	inactive: 0.081	inactive: 0.061	inactive: -0.098	inactive: -0.02	inactive: -0.001	inactive: -0.074	inactive: 0.181	–	–
8	PTPN12 (UniProt Q05209)	inactive: 0.031	inactive: -0.018	inactive: -0.04	inactive: 0.069	inactive: -0.088	inactive: 0.053	inactive: -0.004	inactive: -0.011	–	–

(next part)

Row | Target | log2 fold change [1] | log2 fold change (crizotinib) | log2 fold change [2] | log2 fold change [3] | log2 fold change (gandotinib) | log2 fold change [4] | log2 fold change (doramapimod) | log2 fold change (ispinesib) | log2 fold change (duvelisib) | log2 fold change (tozasertib)
26 | PSMB5 isoform 3 (UniProt P28074) | inactive: 0.121 | – | inactive: 0.034 | – | – | inactive: -0.062 | – | inactive: -0.24 | inactive: 0.3 | inactive: -0.296
27 | PTBP2 isoform 3 (UniProt Q9UKA9) | inactive: 0.036 | inactive: -0.296 | – | – | inactive: 0.033 | – | inactive: 0.01 | – | – | –
28 | PTPN7 isoform 3 (UniProt P35236) | inactive: 0.235 | – | – | inactive: 0.231 | – | – | – | inactive: -0.014 | – | –
29 | PSMD8 (UniProt K7ERW6) | – | inactive: -0.021 | – | – | – | – | inactive: 0.066 | – | – | –
30 | PRUNE2 isoform 3 (UniProt Q8WUY3) | – | inactive: 0.034 | inactive: -0.053 | – | – | inactive: 0.099 | inactive: -0.12 | inactive: 0.062 | inactive: 0.088 | –
31 | PTRH1 (UniProt Q86Y79) | – | inactive: -0.014 | – | inactive: 0.229 | inactive: 0.106 | inactive: -0.005 | inactive: -0.042 | inactive: -0.177 | inactive: 0.181 | –
32 | PYCR1 (UniProt J3QKT4) | – | – | inactive: -0.098 | – | inactive: 0.169 | – | – | – | – | inactive: -0.223
33 | PTK2B (UniProt Q14289) | inactive: -0.029 | – | inactive: -0.03 | inactive: 0.234 | inactive: -0.03 | inactive: 0.016 | – | inactive: -0.233 | – | –
34 | PTGER3 isoform 2 (UniProt P43115) | – | inactive: 0 | – | – | – | – | inactive: 0.375 | inactive: 0.168 | – | –
35 | PSMA3 (UniProt H0YJ03) | – | inactive: 0.081 | – | inactive: 0.099 | – | inactive: -0.07 | inactive: 0.072 | inactive: -0.213 | – | –
36 | PSMD8 (UniProt K7EK21) | – | – | – | inactive: 0.485 | – | – | – | – | – | –
37 | PSMB8 (UniProt P28062) | – | inactive: 0.067 | – | inactive: 0.04 | inactive: 0.126 | – | inactive: 0.007 | – | – | –
38 | PTPN18 (UniProt Q99952) | inactive: 0.099 | inactive: -0.084 | – | – | – | – | inactive: 0.098 | inactive: 0.183 | – | –
39 | PTPRJ (UniProt Q12913) | inactive: -0.057 | – | inactive: 0.085 | – | – | – | – | – | – | –
40 | R3HCC1L (UniProt Q7Z5L2) | inactive: 0.096 | – | – | inactive: 0.086 | inactive: -0.097 | – | – | – | – | inactive: -0.187
41 | PUM2 isoform 3 (UniProt Q8TB72) | – | – | – | inactive: -0.005 | – | inactive: 0.076 | – | – | inactive: -0.022 | –
42 | PSMC1 (UniProt G3V4X1) | – | – | – | inactive: 0.099 | inactive: 0.066 | – | – | – | – | –
43 | PSEN2 (UniProt P49810) | inactive: 0.105 | – | – | – | inactive: 0.014 | inactive: -0.171 | – | inactive: -0.556 | inactive: 0.128 | –
44 | PTPN9 (UniProt P43378) | – | – | – | – | inactive: 0.062 | inactive: 0.058 | – | – | inactive: -0.107 | –
45 | PTS (UniProt Q03393) | – | inactive: -0.112 | inactive: 0.14 | inactive: -0.04 | inactive: 0.003 | inactive: 0.011 | inactive: 0.016 | – | inactive: 0.193 | inactive: 0
46 | PSMC3IP (UniProt Q9P2W1) | – | – | inactive: 0.122 | inactive: -0.109 | inactive: -0.035 | – | – | – | – | inactive: 0.067
47 | PUSL1 (UniProt Q8N0Z8) | inactive: -0.064 | – | inactive: -0.24 | inactive: 0.473 | inactive: 0.158 | – | – | inactive: -0.14 | – | inactive: -0.111
48 | PURG (UniProt Q9UJV8) | inactive: -0.195 | – | inactive: -0.277 | – | – | – | – | – | – | –
49 | PTEN isoform 2 (UniProt P60484) | – | inactive: 0.077 | – | – | inactive: 0.312 | – | inactive: 0.001 | inactive: 0.024 | – | –
50 | PSD2 (UniProt Q9BQI7) | inactive: -0.077 | – | inactive: -0.031 | – | – | – | – | inactive: -0.307 | – | –
